Data as given in PubChem BioAssay AID1259308 (NCATS, 2017).
Shown is a random part of about 59,000 reagents. About 1,510 of them (2.6%) count as active. 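Calls use total luciferase alone and ignore viability, so some active siRNAs may act by altering cell number.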 Entries without a mark were called inactive. Reagents against one gene are numbered here. Not all columns of the deposit are shown. Reagent sequences are not shown.

- Screen: 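Candidate targets for better recombinant protein yield in mammalian cells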 (primary screen)
- System: human HEK293 embryonic kidney cells stably expressing firefly luciferase (HEK-CMV-Luc2-Hygro)
- Reagent: single siRNA against human genes, 0.8 pmol siRNA per well
- Time to read-out: 72 h
- Measurement: 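Luciferase light (ONE-Glo) measured on one replicate plate set and viability (CellTiter-Glo) on the other, scaled to a negative control siRNA, with robust z-scores and luciferase per cell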
- Scale: total luciferase, z-score: higher = more reporter protein produced
- Hit rule: 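Active when the median/MAD z-score for overall luciferase is greater than 3; a gene was taken forward for validation with new siRNAs if at least two of its three siRNAs passed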
- Calls: active = raised luciferase; inactive = no rise

Against TENT5D #1, the values are total luciferase, z-score 0.542.
After knock-down of TENT5D #2 the results were total luciferase, z-score -0.543.
TENT5D #3 showed total luciferase, z-score 2.12.
WEE1 #1 gave total luciferase, z-score -2.95.
Depletion of WEE1 #2 came out at: total luciferase, z-score 0.14.
For WEE1 #3, the values are total luciferase, z-score -0.252.
HABP4 #1 gave total luciferase, z-score 3.07 (active).
HABP4 #2 gave total luciferase, z-score -0.57.
HABP4 #3 scored total luciferase, z-score -0.432.
For OR52J3 #1, the entry reads total luciferase, z-score -0.763.
With knock-down of OR52J3 #2, the screen gave total luciferase, z-score 0.108.
After knock-down of OR52J3 #3, the record shows total luciferase, z-score 1.23.
After knock-down of LRP6 #1, the screen gave total luciferase, z-score -0.0175.
Against LRP6 #2, the entry reads total luciferase, z-score -1.77.
LRP6 #3 showed total luciferase, z-score -0.632.
Depletion of CYP2C18 #1 came out at: total luciferase, z-score -1.11.
Against CYP2C18 #2, the entry reads total luciferase, z-score 0.133.
After knock-down of CYP2C18 #3 the results were total luciferase, z-score -0.622.
Against NLRC4 #1 the deposit lists total luciferase, z-score 0.324.
For NLRC4 #2, the values are total luciferase, z-score -0.499.
NLRC4 #3 scored total luciferase, z-score 0.971.
PCYT1A #1 showed total luciferase, z-score 0.876.
After knock-down of PCYT1A #2 the results were total luciferase, z-score 0.73.
Knock-down of PCYT1A #3 gave: total luciferase, z-score -0.798.
Depletion of LOX #1 came out at: total luciferase, z-score 1.21.
Against LOX #2, the entry reads total luciferase, z-score 2.08.
LOX #3 scored total luciferase, z-score 1.01.
Depletion of SHISA5P1 #1 resulted in: total luciferase, z-score 1.56.
Against SHISA5P1 #2, the entry reads total luciferase, z-score 0.603.
Depletion of SHISA5P1 #3 came out at: total luciferase, z-score -0.388.
Against DHX34 #1, the values are total luciferase, z-score 2.45.
After knock-down of DHX34 #2 the results were total luciferase, z-score -0.587.
With knock-down of DHX34 #3, the record shows total luciferase, z-score -1.02.

Copied from the list.
Result of LOX #2 under “total luciferase, z-score”: 2.08
NLRC4 #2, total luciferase, z-score → -0.499
Entry of HABP4 #1 in “total luciferase, z-score”: 3.07 (active)
Value for OR52J3 #2 in “total luciferase, z-score”: 0.108
